Measurements taken from PubChem BioAssay AID330 (DTP/NCI, 2004).
The list is a part of this screen's results and no random one: it is rich in T/C values a quarter to a half above the control, in often repeated tests (any T/C) and in doses without a T/C. Further doses and runs are listed elsewhere. T/C: endpoint of the treated group in % of that of the vehicle group. Some doses have a count of surviving animals in place of a T/C: the source holds a T/C of zero for them, seemingly a mark for toxic or unscored doses. Some doses without a T/C left all or most animals alive at the check, yet need not have been tolerated: survival well below the control is almost never listed, so the zero probably covers shortened survival too. Counts of survivors are from the toxicity check (mostly the fifth day) where no day follows; animals may have died later. Schedule codes are those of the source, taken here to give the interval after Q, in days (D) or hours (H), and the number of doses after X. Counts like (3×) stand for listed records that agree. Some doses were run more than once; the values are given in rising order. Where survival is the endpoint, the PubChem record calls one and a half times the control and up active, and a quarter to a half above the control has no call in these data; cut-offs in other NCI protocols can differ. Some T/C values carry the count of animals alive at the toxicity check (mostly the fifth day); where none is given, no animal had died by that day.

Tested on: P388 leukemia ip, CD2F1 mice, survival T/C
Experiment: NCI In Vivo Anticancer Drug Screen. Data for tumor model P388 Leukemia (intraperitoneal) in CD2F1 (CDF1) mice
Settings: T/C endpoint: median survival time, higher T/C = longer survival
[1] = dose: 50.0 mg/kg/injection, schedule: Q01DX009 (ip), vehicle: saline
[2] = dose: 100.0 mg/kg/injection, schedule: Q01DX009 (ip), vehicle: saline
[3] = dose: 200.0 mg/kg/injection, schedule: Q01DX009 (ip), vehicle: saline
[4] = dose: 100.0 mg/kg/injection, schedule: Q01DX005 (ip), vehicle: Klucel (hydroxypropylcellulose) (HPC)
[5] = dose: 240.0 mg/kg/injection, schedule: Q01DX005 (ip), vehicle: Klucel (hydroxypropylcellulose) (HPC)
[6] = dose: 200.0 mg/kg/injection, schedule: Q01DX005 (ip), vehicle: saline with Tween-80
[7] = dose: 100.0 mg/kg/injection, schedule: Q01DX005 (ip), vehicle: saline with Tween-80

C=CC(=NC(C)C)Nc1ccccc1
survivor count (dose: 12.5 mg/kg/injection, schedule: Q01DX009 (ip), vehicle: saline): 1 of 6
survivor count (dose: 25.0 mg/kg/injection, schedule: Q01DX009 (ip), vehicle: saline): 0 of 6
survivor count [1]: 0 of 6
survivor count [2]: 0 of 6
survivor count [3]: 0 of 6

CC(C)N1COCO[C@H]2CCC[C@@H]21
T/C (dose: 50.0 mg/kg/injection, schedule: Q01DX005 (ip), vehicle: Klucel (hydroxypropylcellulose) (HPC)): 129 % of control
survivor count (dose: 400.0 mg/kg/injection, schedule: Q01DX001 (ip), vehicle: Klucel (hydroxypropylcellulose) (HPC)): 0 of 6

NC(=O)c1[nH]nc(C2OC(CO)C(O)C2O)c1O (centres undefined)
T/C (dose: 0.67 mg/kg/injection, schedule: Q01DX009 (ip), vehicle: saline): 126 % of control
T/C (dose: 1.0 mg/kg/injection, schedule: Q01DX009 (ip), vehicle: saline): 129 % of control (2×)
survivor count (dose: 1.25 mg/kg/injection, schedule: Q01DX009 (ip), vehicle: saline): 6 of 6
T/C (dose: 2.0 mg/kg/injection, schedule: Q01DX009 (ip), vehicle: saline): 132 and 133 % of control
survivor count (dose: 2.5 mg/kg/injection, schedule: Q01DX009 (ip), vehicle: saline with Tween-80): 6 of 6
survivor count (dose: 5.0 mg/kg/injection, schedule: Q01DX009 (ip), vehicle: saline with Tween-80): 6 of 6
survivor count (dose: 10.0 mg/kg/injection, schedule: Q01DX009 (ip), vehicle: saline with Tween-80): 6 of 6
survivor count (dose: 20.0 mg/kg/injection, schedule: Q04DX003 (ip), vehicle: saline sonified): 6 of 6
survivor count (dose: 40.0 mg/kg/injection, schedule: Q04DX003 (ip), vehicle: saline sonified): 6 of 6

Cc1cc(Nc2ccc3c(c2)OCO3)c2cc3c(cc2n1)OCO3
T/C [4]: 126 % of control
survivor count (dose: 400.0 mg/kg/injection, schedule: Q01DX005 (ip), vehicle: Klucel (hydroxypropylcellulose) (HPC)): 0 of 6

N#CC1CCN(Cc2ccccc2)C(C#N)C1 (centres undefined)
survivor count (dose: 120.0 mg/kg/injection, schedule: Q01DX005 (ip), vehicle: Klucel (hydroxypropylcellulose) (HPC)): 0 of 6
survivor count [5]: 0 of 6

O=C(Nc1ccc(Cl)cc1)Nc1nnc(Cc2ccc(Cl)cc2)o1
survivor count [6]: 6 of 6

CCS(=O)(=O)c1ccc(N2C(N)=NC(N)=NC2(C)C)cc1
survivor count (dose: 50.0 mg/kg/injection, schedule: Q01DX005 (ip), vehicle: saline with Tween-80): 3 of 5
survivor count [7]: 0 of 5
survivor count [6]: 0 of 5

N#CC(C#N)=NO (tested in a mixture with another compound)
survivor count [1]: 6 of 6
survivor count [3]: 4 of 6

Cn1c(C=O)cnc1[N+](=O)[O-]
survivor count (dose: 100.0 mg/kg/injection, schedule: Q01DX009 (ip), vehicle: Klucel (hydroxypropylcellulose) (HPC)): 4 of 6
survivor count (dose: 200.0 mg/kg/injection, schedule: Q01DX009 (ip), vehicle: Klucel (hydroxypropylcellulose) (HPC)): 0 of 6

CC(=O)N=c1sccn1CC(O)c1ccccc1 (centres undefined)
survivor count (dose: 100.0 mg/kg/injection, schedule: Q01DX001 (ip), vehicle: Klucel (hydroxypropylcellulose) (HPC)): 6 of 6

O=[N+]([O-])c1ccc2c(ccc3sc4ccccc4[n+]32)c1
survivor count [7]: 3 of 6
survivor count [6]: 0 of 6

Cc1cc(NCCCNCCCNc2cc(C)nc3cc([N+](=O)[O-])ccc23)c2ccc([N+](=O)[O-])cc2n1
T/C (dose: 3.13 mg/kg/injection, schedule: Q01DX009 (ip), vehicle: other): 133 % of control
T/C (dose: 6.25 mg/kg/injection, schedule: Q01DX009 (ip), vehicle: other): 133 and 134 % of control
T/C (dose: 12.5 mg/kg/injection, schedule: Q01DX009 (ip), vehicle: other): 135 % of control
survivor count (dose: 25.0 mg/kg/injection, schedule: Q01DX009 (ip), vehicle: other): 2 of 6
survivor count (dose: 50.0 mg/kg/injection, schedule: Q01DX009 (ip), vehicle: other): 0 of 6 and 1 of 6
survivor count (dose: 100.0 mg/kg/injection, schedule: Q01DX009 (ip), vehicle: other): 0 of 6
survivor count (dose: 200.0 mg/kg/injection, schedule: Q01DX009 (ip), vehicle: other): 0 of 6

O=C(Nc1ccccc1)c1nn(-c2cc(S(=O)(=O)[O-])ccc2Cl)[n+](-c2ccccc2Cl)n1
survivor count [5]: 3 of 6

N=C(N)c1ccc(N=Nc2c(O)ccc3cc(O)ccc23)cc1
T/C (dose: 25.0 mg/kg/injection, schedule: Q01DX005 (ip), vehicle: Klucel (hydroxypropylcellulose) (HPC), evaluated on day 20): 129 % of control [5 of 6 alive]
T/C (dose: 25.0 mg/kg/injection, schedule: Q01DX005 (ip), vehicle: Klucel (hydroxypropylcellulose) (HPC), evaluated on day 21): 103 % of control
T/C (dose: 25.0 mg/kg/injection, schedule: Q01DX005 (ip), vehicle: Klucel (hydroxypropylcellulose) (HPC), evaluated on day 30): 114 and 119 % of control
T/C (dose: 50.0 mg/kg/injection, schedule: Q01DX005 (ip), vehicle: Klucel (hydroxypropylcellulose) (HPC), evaluated on day 20): 127 % of control
T/C (dose: 50.0 mg/kg/injection, schedule: Q01DX005 (ip), vehicle: Klucel (hydroxypropylcellulose) (HPC), evaluated on day 21): 91 % of control
T/C (dose: 50.0 mg/kg/injection, schedule: Q01DX005 (ip), vehicle: Klucel (hydroxypropylcellulose) (HPC), evaluated on day 30): 112 [5 of 6 alive] and 122 % of control
T/C (dose: 100.0 mg/kg/injection, schedule: Q01DX005 (ip), vehicle: Klucel (hydroxypropylcellulose) (HPC), evaluated on day 20): 146 % of control
T/C (dose: 100.0 mg/kg/injection, schedule: Q01DX005 (ip), vehicle: Klucel (hydroxypropylcellulose) (HPC), evaluated on day 21): 87 % of control
T/C (dose: 100.0 mg/kg/injection, schedule: Q01DX005 (ip), vehicle: Klucel (hydroxypropylcellulose) (HPC), evaluated on day 30): 117 % of control
survivor count [4]: 0 of 6
survivor count (dose: 200.0 mg/kg/injection, schedule: Q01DX005 (ip), vehicle: Klucel (hydroxypropylcellulose) (HPC)): 0 of 6 (3×)

COC1=C(OC)C(=O)C(C/C=C(\C)CC/C=C(\C)CC/C=C(\C)CC/C=C(\C)CC/C=C(\C)CC/C=C(\C)CC/C=C(\C)CC/C=C(\C)CC/C=C(\C)CCC=C(C)C)=C(C)C1=O
survivor count (dose: 12.5 mg/kg/injection, schedule: Q01DX009 (ip), vehicle: saline with Tween-80): 6 of 6
survivor count (dose: 50.0 mg/kg/injection, schedule: Q01DX009 (ip), vehicle: saline with Tween-80): 6 of 6

COC1=C(OC)C(=O)C(CO)=CC1=O
survivor count (dose: 30.0 mg/kg/injection, schedule: Q01DX005 (ip), vehicle: saline): 0 of 6
survivor count (dose: 60.0 mg/kg/injection, schedule: Q01DX005 (ip), vehicle: saline): 0 of 6
survivor count (dose: 120.0 mg/kg/injection, schedule: Q01DX005 (ip), vehicle: saline): 0 of 6
survivor count (dose: 240.0 mg/kg/injection, schedule: Q01DX005 (ip), vehicle: saline): 0 of 6

C=C/[Se](=C(/C#N)C(=O)c1ccccc1)c1ccccc1 (centres undefined)
survivor count [1]: 6 of 6
survivor count [2]: 3 of 6
survivor count [3]: 1 of 6

CC(C)CCCCCCCCCCCCC(O)CC(=O)O (centres undefined)
survivor count (dose: 70.0 mg/kg/injection, schedule: Q01DX005 (ip), vehicle: Klucel + Tween-80): 6 of 6

c1ccc2[s+]csc2c1
survivor count (dose: 200.0 mg/kg/injection, schedule: Q01DX009 (ip), vehicle: distilled water + Tween-80): 0 of 6

Cn1cnc([N+](=O)[O-])c1[Se]c1nc(N)nc2nc[nH]c12
T/C (dose: 12.5 mg/kg/injection, schedule: Q01DX009 (ip), vehicle: dextrose): 131 % of control
T/C (dose: 12.5 mg/kg/injection, schedule: Q01DX009 (ip), vehicle: water): 126 % of control

Cc1ccc(S(=O)(=O)NC(=O)C2C(=O)CC3(CCCCC3)CC2=O)cc1
survivor count (dose: 400.0 mg/kg/injection, schedule: Q01DX009 (ip), vehicle: Klucel (hydroxypropylcellulose) (HPC)): 3 of 6
